# Screening data, single-dose tests

T. brucei: 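Whole-parasite assay of Trypanosoma brucei over 72 hours; the read-out is not stated. Concentration: 30 µM. The record gives no direction; compounds that gave an IC50 in retests scored well above the rest, so higher reads as stronger inhibition. Values scatter widely below zero; nearly all retest evidence comes from the higher of the two concentrations used. About 64,000 compounds were tested under these conditions; 1.5% (about 940) showed 50% or more at least once.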
Leishmania in macrophages: 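Cell assay of Leishmania donovani living inside macrophages; the read-out is not stated. Tested at 30 µM. Higher reads as stronger inhibition (inferred: compounds with an IC50 in retests scored well above the rest). About 69,000 compounds were tested under these conditions; 1.5% (about 1,000) showed 50% or more at least once.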
Toxoplasma: 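Assay of Toxoplasma gondii numbers, read through their beta-galactosidase reporter with a colour substrate. Compounds at 10 µM. Higher reads as fewer parasites (inferred from which compounds were picked for retests). Of about 67,000 compounds tested this way, about 260 (0.38%) reached 50% or more in at least one test.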

Values are the deposited “Percent Effect”, in %. The record does not define 0% and 100%; most values in the screen are far below 50% and negative numbers occur (in some assays of this library far below -100). This is an unselected part of the compounds tested. A dash means the value is not listed here; it may have been measured.

| # | SMILES | T. brucei | Leishmania in macrophages | Toxoplasma |
|---|---|---|---|---|
| 1 | `COCCN1CCC2(COCc3c(C)nc(N4CCOCC4)nc32)C1.O=C(O)C(F)(F)F` (stereo not given) | -151.4 | -21.36 | -0.4741 |
| 2 | `O=C(c1ccc(Cn2cccc2)cc1)N1CCN(CCO)CC1` | -2.493 | 19.64 | -8.82 |
| 3 | `CC(=O)OC1CN(c2nc3c(Cl)cccc3s2)C1` | -22.02 | 15.17 | 18.24 |
| 4 | `CCn1cc(N)c(-c2nnc3n2CCCC3)n1` | -8.24 | -3.706 | 1.46 |
| 5 | `[H][C@@]12CN(C(=O)C3CCOCC3)C[C@@]1([H])N(CC)C(=O)CO2` | -7.716 | -16.13 | 6.44 |
| 6 | `Cc1cc(CN(C)Cc2ncc(C(C)(C)C)o2)no1` | -49.02 | -12.67 | 27.68 |
| 7 | `Cc1cccc(Cn2c3c(ccc2=O)CCN(Cc2ccoc2)CC3)n1.O=C(O)C(F)(F)F.O=C(O)C(F)(F)F` | -7.135 | 35.27 | 7.181 |
| 8 | `Cc1cccc(C2CCCN(C(=O)C3CCN(CC(N)=O)CC3)C2)c1` (stereo not given) | -47.24 | 18.45 | 2.38 |
| 9 | `COCCOC1CCN(C(=O)NCc2coc3ccccc23)CC1` | -19.93 | 16.05 | -6.056 |
| 10 | `CCN(C(=O)CS(=O)(=O)c1cc(OC)c(OC)cc1C)C1CC1` | -37.85 | 22.76 | 21.13 |
| 11 | `CCOC1CCCN(C(=O)NCCc2ccn(-c3ccccc3)n2)C1` (stereo not given) | 99.66 | -3.053 | 2.894 |
| 12 | `Cc1cnc(CN2CCOC(CN(C)c3cccnn3)C2)cn1` (stereo not given) | -10.5 | -4.383 | 1.158 |
| 13 | `CN1CC(c2ccccc2)CC12CCN(C(=O)c1ccc(Cl)cn1)CC2` (stereo not given) | -35.26 | 1.65 | 4.123 |
| 14 | `Cn1cc(Cl)cc1C(=O)N1CCCN(Cc2nccn2C)CC1` | - | 2.982 | 28.44 |
| 15 | `CN(C)CC(C)(C)CN1CCC(c2ccnc(-c3cccc(O)c3)c2)C1` (stereo not given) | -27.41 | 29.57 | 7.739 |
| 16 | `Cn1ccc(C(=O)N2CCC3(CC2)CC(Nc2cnccn2)CO3)n1` (stereo not given) | -57.27 | 7.72 | 3.613 |
| 17 | `Cc1oc(C)c(C(=O)NS(=O)(=O)c2ccc3c(c2)OCCCO3)c1C` | -12.56 | 13.68 | 1.58 |
| 18 | `OCCNc1cc(-c2nccnc2N2CCCC2)c2cc[nH]c2n1` | -48.96 | -29.24 | 12.61 |
| 19 | `CC(O)c1cn(Cc2ccc(Cl)cc2Cl)nn1` (stereo not given) | - | 15.78 | 1.66 |
| 20 | `COc1cccc(CCC(=O)N2CCCC(n3cc(C)cn3)C2)c1` (stereo not given) | -3.12 | 9.343 | -4.668 |
| 21 | `CCS(=O)(=O)N1CC(c2nc(-c3ccsc3)no2)C1` | -13.72 | 38.59 | -6.276 |
| 22 | `CCn1cnnc1CNC(=O)CCC(=O)c1ccc2c(c1)OCCO2` | -1.275 | 8.885 | 8.788 |
| 23 | `CS(=O)(=O)CCCNC1(c2cccc(F)c2)CC1` | 1.817 | 23.38 | 9.458 |
| 24 | `CCOC(=O)CN1CCC2(CCCN(CCOc3ccccc3)C2)C1` (stereo not given) | 23.47 | -1.214 | -21.9 |
| 25 | `O=C(c1cnn2c1OCCC2)N1CCC2(CC1)OCCO2` | 55.16 | -1.291 | -5.654 |
| 26 | `O=C1NCCCC12CCN(S(=O)(=O)N1CCOCC1)C2` (stereo not given) | -5.178 | 19.97 | 15.89 |
| 27 | `O=C(O)C(F)(F)F.c1cc(CN2CCC3(CCOCC3COCC3CC3)CC2)co1` (stereo not given) | -21.61 | 12 | -18.26 |
| 28 | `CCN1CCN(C(=O)COc2ccc(CN(C)S(C)(=O)=O)cc2)CC1` | -9.228 | 20.4 | 11.19 |
| 29 | `CSCC[C@H](N)C(=O)NCc1cc2n(n1)CCCN(C1CCCCC1)C2` | -2.822 | 39.46 | -2.966 |
| 30 | `CCCNC(=O)CCC(=O)N1CCC(c2n[nH]c(C3CC3)n2)CC1` | -24.5 | -11.33 | - |
| 31 | `CCc1cc(N2CC(N3CCCCC3C)C2)n2nccc2n1` (stereo not given) | 6.629 | -24.21 | -16.94 |
| 32 | `CCN(Cc1ccco1)C(=O)NCC(c1cccs1)N(C)C` (stereo not given) | -51.15 | -9.467 | -3.138 |
| 33 | `O=C1CCCCN1CCC(=O)N1CCCCC1c1ccc(F)cc1` (stereo not given) | -45.49 | 4.661 | -6.185 |
| 34 | `CC(C)n1cnnc1CN(C)Cc1cnc(-c2ccccn2)nc1` | -10.05 | -3.112 | 0 |
| 35 | `CC(C)c1cc(C(=O)N[C@@H]2CC[C@@H](Oc3ccccc3)[C@@H]2O)on1` | 8.827 | 23.67 | 0.5549 |
| 36 | `Cn1cc(-c2nc(CN3CCN(CCO)CC3)cs2)cn1` | -2.706 | 7.197 | -4.517 |
| 37 | `CC(C)C[C@H](NC(=O)NC1CCS(=O)(=O)C1)C(=O)NCc1cccnc1` (stereo not given in full) | -24.13 | -4.709 | 1.597 |
| 38 | `Cc1ccccc1C(N)c1ccncc1.Cl` (stereo not given) | -1.36 | 22.96 | -23.35 |
| 39 | `Cn1nc(CN2CCCC2)c2c1CN(C(=O)c1ccncc1F)CC2` | -97.12 | 24.54 | 1.521 |
| 40 | `CO[C@H]1CN(Cc2cc(Cn3cncn3)c(C)cc2C)CC[C@H]1N` | -36.85 | 22.66 | -7.08 |
| 41 | `CCC[C@H]1CN(S(C)(=O)=O)C[C@@H]1NC(=O)CCOCC` | -33.56 | -29.93 | 9.172 |
| 42 | `Cl.c1nc(CCC2CCCN2)cc(N2CCCOCC2)n1` (stereo not given) | -32.81 | -14.86 | 12.88 |
| 43 | `CCn1ncc2c(C(F)(F)F)cc(-c3ccn(C)n3)nc21` | -0.9628 | -9.899 | 9.63 |
| 44 | `O=C1COc2c(cccc2C(=O)N2CCCC2Cn2cccn2)N1` (stereo not given) | 19.9 | 13.37 | 1.506 |
| 45 | `O=C1CCCN1Cc1ncn2c1CN(C(=O)C1CC=CC1)CCC2` | -30.43 | 3.725 | 24.21 |
| 46 | `CCc1ccccc1OCCN(C)C(=O)CN1CCCC1` | -5.097 | 28.47 | -27.01 |
| 47 | `CS(=O)(=O)N1CCC(Oc2ccc(C(=O)NC3CCCC3)cc2Cl)CC1` | -13.14 | 16.93 | 9.475 |
| 48 | `Cc1nc(C)c(C(=O)N(C)Cc2cnn(C)c2)s1` | 4.274 | 8.348 | 5.401 |
| 49 | `COc1ccc(CNc2nc(C3CC3)no2)cc1OC` | -5.365 | -31.22 | 12.56 |
| 50 | `CS(=O)(=O)CCCNC1(c2cccc(Cl)c2)CCCC1` | -8.922 | 5.268 | -3.008 |
| 51 | `O=C(NCCc1coc(-c2ccc(F)cc2)n1)NCC1CCOC1` (stereo not given) | -40.04 | 26.55 | 10.95 |
| 52 | `Cc1ccc(C(=O)N2CC[C@@H](N(C)C)[C@@H]2Cc2cnn(C)c2)cn1.O=C(O)C(F)(F)F.O=C(O)C(F)(F)F` | -478.3 | 14.73 | -14.63 |
| 53 | `[H][C@@]12CCC(=O)N(CCC3=CCCCC3)[C@]1([H])CCN(Cc1cnn(C)c1)C2` | 17.05 | 27.74 | 6.107 |
| 54 | `CCN(CC)CC[C@H]1CN(C(=O)NC2CCCCC2)CC[C@H]1CC(=O)O` | -16.46 | 3.996 | -4.093 |
| 55 | `CCN(C)CC(C)Cn1cnc(-c2ccccc2)c1-c1cncn1CC` (stereo not given) | -22.92 | 4.336 | -21.48 |
| 56 | `CC(C)N(C)Cc1cnc2n1CCN(C(=O)Cc1ccccn1)C2.O=C(O)C(F)(F)F.O=C(O)C(F)(F)F` | -15.16 | 10.69 | 18.01 |
| 57 | `CCc1cc(=O)n(CCNC(=O)Nc2ccc(OC(F)(F)F)cc2)cn1` | 22.55 | 23.7 | -6.547 |
| 58 | `COc1ccccc1COCC(O)CN1CC(n2cccn2)C1` (stereo not given) | 10.62 | 20.66 | 9.303 |
| 59 | `COC1CN(C(=O)COC(C)=O)CCC(=O)N(C)c2ccccc21` (stereo not given) | -4.408 | 10.01 | -25.19 |
| 60 | `CNC(=O)c1ccc(CN(C(C)C)C(C)C)o1.Cl` | -52.25 | 27.37 | -8.233 |
| 61 | `CC(C)CCN1CCc2[nH]nc(C(=O)N3CCCC3C)c2C1.O=C(O)C(F)(F)F` (stereo not given) | -17.98 | 10.57 | -6.769 |
| 62 | `CC(C)c1nccn1C(C)C(=O)NC1CCOCC1` (stereo not given) | -4.432 | 1.979 | -7.751 |
| 63 | `CC(C)(CNC(=O)COc1cccc(F)c1)C(N)=O` | - | -6.193 | -13.38 |
| 64 | `CCCc1n[nH]cc1C(=O)N1CCC(c2nccn2CCOC)CC1` | 8.024 | 13.82 | -0.1838 |
| 65 | `CC(Cc1cnccn1)NC(=O)COc1ccc(F)cc1F` (stereo not given) | -42.41 | 12.58 | 6.777 |
| 66 | `[H][C@]12CN(C(=O)c3ccnnc3)C[C@@]1([H])OCCN(S(C)(=O)=O)C2` | -53.87 | 25.64 | 6.263 |
| 67 | `O=C(NCC1CC2(CO1)CN(Cc1cccs1)C2)C1CCC1.O=C(O)C(F)(F)F` (stereo not given) | -5.505 | 22.76 | 12.5 |
| 68 | `Fc1ccc(NCc2nnsc2Cl)c(OC(F)F)c1` | 5.402 | 13.64 | 3.977 |

From ChEMBL document CHEMBL3988442, “University of Dundee, Small-Polar-MMV Screening Library” (2021).